Source: PubChem BioAssay AID2685 (National Center for Advancing Translational Sciences (NCATS), 2010)
Some of the results follow. Shown are side measurements of this screen, not its main read-out; they come without a call. The list favours compounds with an active or inconclusive main result. The note in brackets gives the kind of curve behind each potency; many fits are weak.

Assay: qHTS Assay for Lipid Storage Modulators in Drosophila S3 Cells;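 for cell number change: cells counted by Cell Tracker Red CMTPX staining in the red channel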
Details: BODIPY lipid droplet fluorescence, 18-24 h; for cell number change: measured here: cell count max response, cells fed with added oleic acid
Procedure, shortened: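 Laser-scanning cytometry quantifies lipid droplet accumulation (500–530 nm total intensity; droplet/cell object ratio) in oleic acid-fed (400 uM added) Drosophila S3 cells treated with a concentration series. 20 uM Triacsin C defined 100% inhibition.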

[1] = measured here: cell number channel AC50, cells fed with added oleic acid
[2] = measured here: lipid fluorescence (Fed channel) AC50, cells fed with added oleic acid

Structure (SMILES) | cell number change [%] | AC50 [1] | AC50 [2]
COc1ccc(OCCSc2nc3ccccc3n2CCC(=O)O)cc1 | 11.7 | 2.31 µM [rising, partial curve] | 29.1 µM [rising, single point]
Cc1ccc(Nc2nnc(C3C(=O)N(C)C4(C)CC3c3cc(Br)ccc3O4)s2)cc1 (stereo unspecified) | 32.5 | 1.84 µM [rising, full curve] | 2.31 µM [rising, partial curve]
CC1CN(C(=O)c2ccccc2Nc2ccc(SC(F)F)cc2)CC(C)O1 (stereo unspecified) | 24.9 |  | 8.2 µM [rising, partial curve]
CCOc1ccc(NS(=O)(=O)c2ccc(-c3ccc(=O)[nH]n3)o2)cc1 |  | 1.84 µM [falling, partial curve] | 
COc1ccc(NS(=O)(=O)c2cc(N)ccc2N2CCCCC2)cc1 | -33 | 16.4 µM [falling, single point] | 
CCc1nnc(NC(=O)C(=O)NCCOC(=O)c2ccccc2)s1 | 35.7 | 0.103 µM [rising, full curve, poor fit] | 
CC(OC(=O)CCN=C1NS(=O)(=O)c2ccccc21)C(=O)Nc1ccc(S(N)(=O)=O)cc1 (stereo unspecified) | 10.4 | 0.651 µM [falling, full curve] | 0.82 µM [falling, full curve]
CSc1cccc2sc(NC(=O)C3=COCCO3)nc12 | 24.5 |  | 
CCCCN(C(=O)COC(=O)CSc1cc(C)c2ccccc2n1)c1c(N)n(CCC)c(=O)[nH]c1=O | 36.3 |  | 0.13 µM [rising, partial curve, poor fit]
COCCCNC(=O)c1ccc(Cn2c(=O)c3ccccc3n(Cc3ccccc3C)c2=O)cc1 | -35.6 | 4.11 µM [rising, single point] | 
Cc1ccccc1NC(=O)CCCCC(=O)Nc1ccccc1C | 9.38 |  | 7.31 µM [rising, partial curve]
Cc1cccc(-n2c(Cc3cc(=O)[nH]c(=O)[nH]3)nnc2SCC(=O)N2CCCCC2)c1 | 14 |  | 0.259 µM [falling, full curve]
Cc1cc(NC(=O)COC(=O)C2CC(=O)N(c3ccc(Cl)cc3)C2)no1 (stereo unspecified) | 3.42 |  | 
CC(O)CNCCCCOc1ccc(OCc2ccccc2)cc1 (stereo unspecified) | -6.46 |  | 5.17 µM [falling, single point]
COc1ccccc1N1CCN(C(=O)CCc2c[nH]c3ccccc23)CC1 |  |  | 0.116 µM [falling, partial curve, poor fit]
O=C(OCn1ncc(Cl)c(Cl)c1=O)c1ccc(F)cc1 | -44.5 | 16.4 µM [falling, partial curve] | 14.6 µM [falling, partial curve]
COC(=O)c1ccc2c(=O)n(Cc3ccco3)c(SCC(=O)Nc3cc(C)on3)nc2c1 | -8.27 |  | 14.1 µM [falling, single point]
CCCn1nc(C(=O)OCC(=O)NC(C)c2ccccc2)c2ccccc2c1=O (stereo unspecified) |  |  | 2.91 µM [rising, single point]
C=CCN1/C(=C(\C#N)C2=NS(=O)(=O)c3ccccc32)N(C)c2ccccc21 | 6.67 | 0.731 µM [rising, full curve] | 6.51 µM [rising, partial curve]
COc1cc(OC)c(OC)cc1CCC(C)NCCC(c1ccccc1)c1ccccc1 (stereo unspecified) | -55.1 | 23.1 µM [falling, partial curve, poor fit] | 14.6 µM [falling, partial curve]

Given in CSV form: part of the list above
Structure (SMILES),cell number change [%],AC50 [1],AC50 [2]
Cc1cccc(-n2c(Cc3cc(=O)[nH]c(=O)[nH]3)nnc2SCC(=O)N2CCCCC2)c1,14,,"0.259 µM [falling, full curve]"
Cc1cc(NC(=O)COC(=O)C2CC(=O)N(c3ccc(Cl)cc3)C2)no1 (stereo unspecified),3.42,,
CC(O)CNCCCCOc1ccc(OCc2ccccc2)cc1 (stereo unspecified),-6.46,,"5.17 µM [falling, single point]"

Remaining list, next part.

Structure (SMILES) | cell number change [%] | AC50 [1] | AC50 [2]
Cc1ccc(-c2[nH]ncc2C(=O)c2ccccc2C)c(O)c1 | -13.5 | 0.058 µM [rising, full curve, poor fit] | 6.51 µM [rising, single point]
O=C(c1nc2ccccn2c1CN1CCN(c2ccccc2O)CC1)N1CCCC1 | 1.13 |  | 2.91 µM [rising, single point]
O=C(C1CCCN(S(=O)(=O)c2cccc3nonc23)C1)N1CCN(c2ccccc2Cl)CC1 (stereo unspecified) | -6.58 |  | 1.46 µM [rising, partial curve]
CCOC(=O)c1ccc(Cl)c(NC(=O)c2ccc(-c3ccccc3)cc2)c1 | -17.7 |  | 29.1 µM [falling, single point]
O=C1CCCN1CCCNc1ccc2nnc(CCC(=O)N3CCN(c4ccccc4)CC3)n2n1 | 11.3 |  | 
Cc1ccc(Nc2cc(C)nc(N3CCOCC3)n2)cc1 | -3.65 |  | 
CCC(=O)N1CCN(c2ccccc2NC(=O)COc2cccc(C)c2)CC1 | -37.4 | 20.6 µM [falling, partial curve, poor fit] | 0.92 µM [rising, full curve, poor fit]
O=C(CSC1=NS(=O)(=O)c2ccccc2N1)Nc1cccc(F)c1 | -16.6 | 0.00731 µM [falling, full curve, poor fit] | 3.26 µM [falling, full curve]
COC(=O)c1ccccc1NC(=O)CSc1nnnn1-c1ccc(C)cc1C |  | 3.26 µM [rising, partial curve] | 20.6 µM [rising, partial curve]
CN1/C(=C\C=C(/C#N)C(=O)Nc2ccc(Cl)cc2)C(C)(C)c2ccccc21 |  | 0.0651 µM [rising, full curve, poor fit] | 
O=C(Nc1ccc(Cl)cc1)c1cc(S(=O)(=O)N2CCOCC2)cs1 | -13.1 |  | 
O=C(c1ccco1)N1CCCN(Cc2cn[nH]c2-c2ccc(-c3ccccc3)cc2)CC1 | -46.6 | 29.1 µM [falling, single point] | 
CC(=O)c1ccc(NC(=O)C(NC(=O)c2ccccc2)=C(C)C)cc1 | 23.1 |  | 29.1 µM [rising, single point]
COc1ccc(CNC(=O)Cc2ccc(OC)c(S(=O)(=O)N3CCOCC3)c2)cc1 | 30.4 | 0.517 µM [rising, full curve, poor fit] | 
O=c1nc(-c2ccccc2)n(-c2ccccc2)[nH]1 | 2.46 | 2.06 µM [falling, partial curve, poor fit] | 0.92 µM [falling, partial curve, poor fit]
COC(=O)c1cccc(C(=O)Nc2cnc3ccccc3c2)n1 | 3.48 |  | 0.291 µM [rising, full curve]
COc1ccc(C(=O)C2CCN(C(=O)Nc3ccccc3C)CC2)cc1 | 13.4 |  | 29.1 µM [rising, single point]
C/C(=N\NC(=O)c1cc(O)cc(O)c1)c1ccc(NC(=O)Cc2ccccc2)cc1 |  |  | 0.651 µM [rising, full curve, poor fit]
CCn1c(CNc2ccc(F)cc2)nnc1SCC(=O)N1CCCc2ccccc21 | -13.8 |  | 6.51 µM [falling, single point]
CCOC(=O)NC(=O)COC(=O)CNC(=O)c1cccc(OC)c1 | 19.1 |  | 2.59 µM [falling, partial curve, poor fit]

Looked up above:
cell number change [%], `Cc1cc(NC(=O)COC(=O)C2CC(=O)N(c3ccc(Cl)cc3)C2)no1` (stereo unspecified) reads 3.42
AC50 [2], `COc1ccc(C(=O)C2CCN(C(=O)Nc3ccccc3C)CC2)cc1` reads 29.1 µM [rising, single point]

Following part.

Structure (SMILES) | cell number change [%] | AC50 [1] | AC50 [2]
Cc1ccc(C)c2[nH]c(=O)c(CCNC(=O)C(C)C)cc12 |  |  | 0.13 µM [rising, full curve, poor fit]
CN(CCCCCCN(C)Cc1ccccc1O)Cc1ccccc1O | -11.1 |  | 0.00461 µM [falling, full curve, poor fit]
CCOC(=O)C1(Cc2ccccc2C)CCCN(C(=O)CCc2cccnc2)C1 (stereo unspecified) | 9.94 |  | 
Cc1ccc(/C=N/NC(=S)NC(C)C)o1 |  |  | 0.58 µM [falling, single point]
O=C1c2ccccc2S(=O)(=O)N1CC1CC(c2ccccc2Cl)=NO1 (stereo unspecified) |  |  | 29.1 µM [rising, single point]
OC(COCc1ccc2c(c1)OCO2)CN1CCN(Cc2ccccc2)CC1 (stereo unspecified) | 72 | 23.1 µM [rising, single point] | 
Cc1cc(C)nc(NS(=O)(=O)c2ccc(NC(=O)c3cc4c(=O)n5cccc(C)c5nc4n3C)cc2)n1 | 2.67 |  | 
Nc1n[nH]c(N)c1N=Nc1ccc2c(c1)OCO2 | -2.02 |  | 0.00411 µM [falling, full curve, poor fit]
O=C(CSc1ncn[nH]1)NCc1ccccc1Cl | -8.56 |  | 
O=C(/C=C/c1ccccc1O)c1ccco1 | -10.8 |  | 6.51 µM [falling, single point]
Cc1ccc(/C=N/NC(=O)c2c(C)nc3ccc(Br)cn23)cc1 | 8.03 |  | 29.1 µM [rising, single point]
COc1ccc(S(=O)(=O)N2CCOCC2)cc1NC(=O)CNC(=O)c1cccs1 | 32 | 32.6 µM [rising, single point] | 0.461 µM [rising, full curve]
COc1ccc([N+](=O)[O-])cc1NC(=O)C(C)OC(=O)c1cccnc1Cl (stereo unspecified) |  |  | 0.00411 µM [rising, full curve, poor fit]
Cn1cc(P(=S)(N2CCOCC2)N2CCOCC2)cc1P(=S)(N1CCOCC1)N1CCOCC1 | 10.1 |  | 
c1csc(CNCCCN2CCOCC2)c1 | -86.2 | 29.1 µM [falling, single point] | 
N=c1n(CC(=O)c2cccs2)c2ccccc2n1Cc1ccccc1 | -18.2 |  | 32.6 µM [falling, single point]
COc1ccc(C(=O)Nc2ccncc2)c(OC)c1 | -6.45 |  | 9.2 µM [falling, partial curve]
COC(=O)Cn1ncc(N2CC(C)OC(C)C2)c(Cl)c1=O (stereo unspecified) | 3.97 |  | 
CCOC(=O)C1CCN(C(=O)Cc2c(C(=O)O)n(C)c3ccccc23)CC1 | 1.97 |  | 
CCc1ccc(OC(=O)Nc2ccccc2)cc1 | 1.64 |  | 2.91 µM [rising, partial curve, poor fit]
